# Assay results: PMC7464140, “Cooperative Regulation of Campylobacter jejuni Heat-Shock Genes by HspR and HrcA” (Microorganisms, 2020)
# No constants are given. Whether binding was seen depends on the method and setting. Some results given as binding are weak or reduced against the parent protein; the word gives no strength. Sequences can lack the tags named with a protein.
# T1: GST-HspR fusion protein (C. jejuni) (C. jejuni) (UniProt Q0P926)
# T1 sequence: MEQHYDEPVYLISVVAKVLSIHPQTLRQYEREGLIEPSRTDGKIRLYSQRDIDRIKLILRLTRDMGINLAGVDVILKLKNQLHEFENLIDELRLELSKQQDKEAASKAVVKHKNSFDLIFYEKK
# T2: GST-HrcA fusion protein (C. jejuni) (C. jejuni) (UniProt Q9PPG2)
# T2 sequence: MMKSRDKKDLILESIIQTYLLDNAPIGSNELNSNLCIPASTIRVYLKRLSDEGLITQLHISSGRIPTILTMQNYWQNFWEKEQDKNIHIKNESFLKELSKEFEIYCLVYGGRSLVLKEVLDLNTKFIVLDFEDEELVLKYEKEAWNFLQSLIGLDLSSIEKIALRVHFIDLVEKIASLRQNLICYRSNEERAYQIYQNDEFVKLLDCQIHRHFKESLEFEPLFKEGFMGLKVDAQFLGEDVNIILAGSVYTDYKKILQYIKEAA
# T3: His-tagged HrcA (C. jejuni) (C. jejuni) (UniProt Q9PPG2)
# T3 sequence: T2 sequence
# T4: HrcA (C. jejuni), bacterial two-hybrid (BACTH) fusion (C. jejuni) (UniProt Q9PPG2)
# T4 sequence: T2 sequence
# B1: His-tagged HspR (C. jejuni) (natural protein, UniProt Q0P926 1-124, looked up)
# chain: T1 sequence
# notes: HspR heat-shock transcriptional repressor of Campylobacter jejuni; Probably strain NCTC11168, the only C. jejuni strain named; also called His-HspR; recombinant His-tagged HspR; source: E. coli BL21 (DE3), pET15b-hspR, purified (Ni2+-NTA)
# B2: HspR (C. jejuni), bacterial two-hybrid (BACTH) fusion (protein, UniProt Q0P926 1-124)
# chain: T1 sequence
# B3: HrcA (C. jejuni), bacterial two-hybrid (BACTH) fusion (protein, UniProt Q9PPG2 1-264)
# chain: T2 sequence
# How the values were obtained:
# [1] = molecular target: T1, GST-HspR fusion protein (C. jejuni) (C. jejuni); test: pull-down; GST, GST-HspR or GST-HrcA on Glutathione-Sepharose (equimolar) incubated with 250 ng/μL purified His-HspR in 200 μL 1× FPB, 1.5 h at 4 °C; seven washes; SDS-PAGE (Coomassie) and anti-His Western blot; both purified
# [2] = molecular target: T2, GST-HrcA fusion protein (C. jejuni) (C. jejuni); test: as above
# [3] = molecular target: T3, His-tagged HrcA (C. jejuni) (C. jejuni); test: cross-linking; in vitro chemical cross-linking of HrcA and HspR proteins with formaldehyde (Figure S2); both purified
# [4] = molecular target: HspR (C. jejuni), bacterial two-hybrid (BACTH) fusion (C. jejuni) (UniProt Q0P926); test: two-hybrid; Bacterial Adenylate Cyclase Two-Hybrid System (BACTH) in E. coli BTH101 (Figure S3)
# [5] = molecular target: T4, HrcA (C. jejuni), bacterial two-hybrid (BACTH) fusion (C. jejuni); test: as above
binder,measurement,setting,value
B1,binding,[1],binds
same,binding,[2],binds
same,binding,[3],binds
B2,binding,[4],binds
same,binding,[5],binds
B3,binding,[5],binds
